Experimental data published in PubChem BioAssay AID1487 (National Center for Advancing Translational Sciences (NCATS), 2009).
This is one part of the list. Shown are side measurements of this screen, not its main read-out; they come without a call. Compounds called inactive in the main read-out are mostly missing here. Potencies come from curve fits of mixed quality, noted in brackets.

Assay: qHTS Assay for Modulators of Lamin A Splicing
Conditions: HeLa LMNA splicing GFP/RFP minigene ratio, 48 h
Procedure, shortened: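 Read-out is the ratio of GFP to DsRed2 object intensity, acquired by 488 nm laser-scanning cytometry on HeLa lamin A-EGFP minigene reporter cells. Compound incubation 48 hrs at 37 °C in Opti-MEM with 2% FBS; DMSO 0.5% final.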

[1] = measured here: GFP splicing reporter channel
[2] = measured here: RFP viability control channel

Structure (SMILES) | AC50 [1] | AC50 [2]
CCNC(=O)c1sc2cc(C)ccc2c1Cl | 0.398 µM [falling, partial curve] | 0.0355 µM [falling, full curve, poor fit]
CC(C)C[C@H](NC(=O)Nc1cccc(C(F)(F)F)c1)C(=O)O | 0.398 µM [falling, partial curve] | –
Cc1c(C2C(C#N)=C(N)N(c3cccc([N+](=O)[O-])c3)C3=C2C(=O)CCC3)cnn1C (stereo not given) | – | 0.0224 µM [falling, full curve, poor fit]
CCN(CC)CCSc1c(C(C)C)cnc2c1c(=O)n(C)c(=O)n2C | 0.708 µM [rising, single point] | –
O=S(=O)(c1ccc2nc(SCc3cccc(Cl)c3)[nH]c2c1)N1CCOCC1 | 3.55 µM [rising, single point] | 35.5 µM [rising, single point]
O=C(CN1C(=O)COc2ccc(S(=O)(=O)NC3CCCC3)cc21)NCc1ccc(Cl)cc1 | 0.158 µM [rising, full curve, poor fit] | 0.178 µM [rising, full curve, poor fit]
Cc1ccc(C(=O)c2sc3c(c2N)c(=O)[nH]c(=O)n3CCc2ccccc2)cc1 | – | 3.16 µM [rising, partial curve, poor fit]
COc1cccc(/C=C/C(=O)NCc2cn3cc(Cl)ccc3n2)c1 | 35.5 µM [rising, single point] | –
c1ccc2oc(-c3[nH]ncc3CN(Cc3ccncc3)CC3CCCO3)cc2c1 (stereo not given) | 0.00891 µM [falling, partial curve, poor fit] | 0.0891 µM [falling, partial curve, poor fit]
CCCn1c2ccccc2c2nc3ccccc3nc21 | – | 22.4 µM [rising, single point]
COc1ccccc1/C=C/C(=O)OCC(=O)Nc1c(F)cccc1F | 35.5 µM [rising, partial curve, poor fit] | –
C(=N\N=C\c1ccccc1)/c1ccccc1 | – | 0.0794 µM [falling, single point]
C=CCN1C(=O)/C(=C/c2ccc(O)cc2)S/C1=N/c1nccs1 | – | 14.1 µM [rising, single point]
N#C/C(=C\C=C\c1ccccc1)C(=O)NCc1ccco1 | – | 17.8 µM [rising, single point]
N#CC1=C(N2CCCCC2)c2cc3c(n2C1=O)CCCC3 | – | 0.891 µM [rising, full curve, poor fit]
CC(C)(C)c1ccc(OC(=O)c2ccc3snnc3c2)cc1 | 0.0501 µM [falling, partial curve] | –
OC(CN1CCN(c2ccccn2)CC1)Cn1c2ccccc2c2ccccc21 (stereo not given) | – | 12.6 µM [rising, single point]
CCc1ccc(OCC(=O)O/N=C(\N)Cc2ccc([N+](=O)[O-])cc2)cc1 | – | 35.5 µM [rising, single point]
CC(C)C(=O)Nc1ccc(NC(=O)c2cccc(F)c2)cn1 | 8.91 µM [rising, partial curve, poor fit] | –

Structure (SMILES) | AC50 [1] | AC50 [2]
Clc1nc(-c2cccnc2)nc2scc(-c3ccccc3)c12 | – | 6.31 µM [rising, partial curve]
COc1ccc(-c2csc(NC3=NCCCCC3)n2)cc1 | – | 0.708 µM [rising, single point]
CCN(CC)c1ccc(C2C3CCCCC3(O)CCN2CC(=O)N2CCCCC2)cc1 (stereo not given) | 35.5 µM [rising, single point] | 35.5 µM [rising, single point]
CCc1ccc(C2(O)CC(C(F)(F)F)=NN2C(=O)Cc2ccc([N+](=O)[O-])cc2)cc1 (stereo not given) | – | 1 µM [rising, partial curve, poor fit]
CCN(CC)S(=O)(=O)c1ccc(NN)nc1 | – | 0.0355 µM [falling, full curve, poor fit]
Cc1ccc2cc(C)c3nnc(SCC(=O)c4cccs4)n3c2c1C | 4.47 µM [rising, single point] | 4.47 µM [rising, partial curve, poor fit]
N#CCSc1nnc(-c2ccccc2)c(-c2ccccc2)n1 | – | 31.6 µM [rising, single point]
c1csc(CNc2nc(-c3ccoc3)nc3ccccc23)c1 | 10 µM [falling, partial curve, poor fit] | –
O=C(Cc1ccccc1)N/N=C/c1cc2c(cc1Cl)OCO2 | 12.6 µM [rising, partial curve] | 15.8 µM [rising, partial curve]
NNc1nc2c(Cl)c(Cl)ccc2s1 | – | 25.1 µM [rising, single point]
O=C(O)/C=C\C(=O)Nc1ccccc1C#Cc1ccc(Br)cc1 | 35.5 µM [falling, single point] | 35.5 µM [falling, single point]
O=C(NCc1cc(Br)cc(Br)c1OC(=O)c1ccccc1[N+](=O)[O-])c1ccccc1 | – | 35.5 µM [rising, single point]
OCCCN1CCN(CCOc2ccccc2-c2ccccc2)CC1 | – | 0.562 µM [rising, full curve, poor fit]
Cn1c(=O)n(C)c2cc(S(=O)(=O)Nc3cc(Cl)ccc3O)ccc21 | 11.2 µM [falling, partial curve, poor fit] | 15.8 µM [falling, partial curve]
COC(=O)Cc1ccc(NC(=S)N2CCN(c3cccc(O)c3)CC2)cc1 | – | 12.6 µM [rising, single point]
CCCn1c(=O)[nH]c(=O)c2c1nc(-c1ccc3c(c1)OCCO3)n2CCN1CCOCC1 | – | 11.2 µM [rising, single point]
Cc1cc(C)cc(C(=O)OCC(=O)Nc2cccc(S(=O)(=O)NC3=NCCCCC3)c2)c1 | 14.1 µM [rising, single point] | 31.6 µM [rising, single point]
CSC1=C(C#N)C(CC(C)C)C2=C(CCCC2=O)N1 (stereo not given) | 17.8 µM [rising, partial curve] | 17.8 µM [rising, partial curve]
CCn1c2c(c(=O)n3ncc(C(=O)Nc4cc(Cl)ccc4OC)c13)CN(Cc1ccc(OC)cc1)CC2 | – | 10 µM [falling, partial curve, poor fit]

Structure (SMILES) | AC50 [1] | AC50 [2]
O=C(NCc1ccc(Cl)cc1)C1CCN(c2nn3cc(-c4ccc(F)cc4)nc3s2)CC1 | 2.82 µM [falling, partial curve] | 5.62 µM [falling, partial curve, poor fit]
O=C(N/N=C/c1ccc(Cl)cc1)c1cc2c(s1)-c1ccccc1CC2 | – | 3.98 µM [rising, full curve]
COc1ccc(S(=O)(=O)N2CCN(C(=O)c3c(C)nn(-c4ccccc4)c3Cl)CC2)cc1 | 4.47 µM [falling, partial curve] | 5.01 µM [falling, partial curve]
COc1ccc(NC(=O)c2ccc([N+](=O)[O-])s2)c([N+](=O)[O-])c1 | – | 8.91 µM [rising, partial curve]
Cc1ccc(S(=O)(=O)Nc2ccc3oc(=O)sc3c2)c(C)c1 | – | 10 µM [rising, partial curve, poor fit]
CNC(=O)c1ccsc1NC(=O)c1ccc(S(=O)(=O)N2CCCc3ccccc32)cc1 | 11.2 µM [rising, single point] | 12.6 µM [rising, partial curve]
Cc1nonc1OCCn1c([N+](=O)[O-])cnc1C | – | 0.447 µM [rising, full curve, poor fit]
COc1cccc(-c2nc(CS(=O)(=O)CC(=O)N3CCN(c4ccccn4)CC3)c(C)o2)c1 | – | 12.6 µM [rising, partial curve]
CCc1ccc(C(=O)CN2CCSC2=N)cc1 | 12.6 µM [rising, partial curve] | 14.1 µM [rising, single point]
Cn1c(=O)n(C)c2cc(S(=O)(=O)NCCc3ccccc3)ccc21 | 12.6 µM [rising, single point] | 14.1 µM [rising, partial curve]
Cc1cc2nc(SC(C)C(=O)O)[nH]c2cc1C (stereo not given) | 12.6 µM [rising, partial curve, poor fit] | –
CCN(CC)CCNC(=O)C(=O)Nc1c2c(nn1-c1ccc(F)cc1)CSC2 | 2.51 µM [falling, full curve, poor fit] | –
Cc1ccn2c(NC3CCCCC3)c(C)nc2c1 | 20 µM [rising, single point] | 14.1 µM [rising, single point]
COc1ccc(-n2c(C)nc3sc4c(c3c2=O)CCCC4)cc1 | – | 2.24 µM [rising, partial curve, poor fit]
O=C(Nc1nncs1)c1ccc(N2C(=O)C3C4C=CC(C4)C3C2=O)cc1 (stereo not given) | – | 20 µM [rising, partial curve, poor fit]
c1coc(-c2nc(-c3ccco3)c(-c3ccco3)nc2-c2ccco2)c1 | 2.82 µM [rising, full curve, poor fit] | 7.08 µM [rising, single point]
O=C(CSCc1c(Cl)cccc1Cl)NN=C1CCCC1 | – | 15.8 µM [rising, partial curve, poor fit]
CCc1ccc(NC(=O)CSc2nnc3[nH]c(=O)cc(-c4ccccc4)n23)cc1 | 17.8 µM [rising, partial curve, poor fit] | 7.08 µM [rising, partial curve]

Some of these compounds in order of count of non-hydrogen atoms, rising.
Structure (SMILES) | AC50 [1] | AC50 [2]
O=C(N/N=C/c1ccc(Cl)cc1)c1cc2c(s1)-c1ccccc1CC2 | – | 3.98 µM [rising, full curve]
COC(=O)Cc1ccc(NC(=S)N2CCN(c3cccc(O)c3)CC2)cc1 | – | 12.6 µM [rising, single point]
CCN(CC)c1ccc(C2C3CCCCC3(O)CCN2CC(=O)N2CCCCC2)cc1 (stereo not given) | 35.5 µM [rising, single point] | 35.5 µM [rising, single point]
